Measurements reported in PubChem BioAssay AID1224830 (NIAID, 2016)
Aim: 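Host factors that control LPS-induced TNF expression in human macrophages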 (primary screen). Cells: human THP-1 monocytic leukaemia cells, TNF dual-luciferase reporter clone, PMA-differentiated to macrophage-like cells. Reagent: siRNA pool against human genes, 50 nM. Timing: LPS for 4 h, given about 3 days after siRNA transfection. Conditions: bacterial LPS (TLR4 ligand), 10 ng/ml. Measurement: 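TNF firefly reporter luminescence divided by renilla, normalised to the plate median, then turned into a robust z-score for each replicate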. Scale: TNF reporter robust z-score: higher = stronger TNF reporter response to LPS. Active means: 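Each well counts as active if its z-score is over 2.8 or under -1.5; controls are left without a call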.
Here is an unselected part of about 18,000 deposited reagents. About 2,900 of all reagents (16%) were called active. 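Calls are made per well; low scores hint the gene aids the LPS response, high scores that it dampens it.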 Unmarked entries are inactive. The numbers tell different reagents against one gene apart. Repeated entries: four replicate wells of each siRNA pool.

no.	gene symbol	reagent no.	TNF reporter robust z-score
1	MYO18A	1	-0.38
2	MYO18A	1	-0.84
3	MYO18A	1	-1.55 (active)
4	MYO18A	1	-0.42
5	MYO18A	2	1.24
6	MYO18A	2	0.48
7	MYO18A	2	-0.29
8	MYO18A	2	1.12
9	RASAL3	1	-0.52
10	RASAL3	1	-0.03
11	RASAL3	1	0.27
12	RASAL3	1	-0.01
13	FIGNL2	1	-0.42
14	FIGNL2	1	0.16
15	FIGNL2	1	-0.66
16	FIGNL2	1	0.01
17	ENTPD6	1	1.59
18	ENTPD6	1	3.33 (active)
19	ENTPD6	1	2.42
20	ENTPD6	1	3.34 (active)
21	FAM120C	1	-0.19
22	FAM120C	1	1.66
23	FAM120C	1	1.77
24	FAM120C	1	1.9
25	ARFGEF3	1	1.01
26	ARFGEF3	1	1.81
27	ARFGEF3	1	3.27 (active)
28	ARFGEF3	1	0.54
29	LAMC1	1	-0.48
30	LAMC1	1	-0.51
31	LAMC1	1	-0.46
32	LAMC1	1	-0.25
33	TAS1R3	1	-0.38
34	TAS1R3	1	0.24
35	TAS1R3	1	-0.64
36	TAS1R3	1	-0.04
37	C8orf58	1	-0.26
38	C8orf58	1	-0.16
39	C8orf58	1	-0.4
40	C8orf58	1	-0.28
41	CD99	1	-0.75
42	CD99	1	0.08
43	CD99	1	-1.31
44	CD99	1	-0.13
45	KBTBD7	1	-0.97
46	KBTBD7	1	-0.85
47	KBTBD7	1	-0.82
48	KBTBD7	1	-0.83

3 of these entries in another layout.
| gene symbol | reagent no. | TNF reporter robust z-score |
| --- | --- | --- |
| KBTBD7 | 1 | -0.97 |
| KBTBD7 | 1 | -0.85 |
| KBTBD7 | 1 | -0.82 |
